# Results are given in words; binding and its absence hold for the method and conditions named. Some binding calls cover weakened binding; strength is not graded here.
# T1: C-reactive protein, P02741
# T1 chain: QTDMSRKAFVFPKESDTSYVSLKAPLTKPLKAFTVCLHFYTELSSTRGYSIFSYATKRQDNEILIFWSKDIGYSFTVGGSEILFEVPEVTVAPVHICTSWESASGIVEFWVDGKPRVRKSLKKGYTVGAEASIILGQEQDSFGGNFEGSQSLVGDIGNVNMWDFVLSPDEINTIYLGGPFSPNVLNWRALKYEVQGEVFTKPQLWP
# Molecular target: T1, C-reactive protein, P02741
# Experiment: native MS; modified TIMS-Q-SID-TOF; 200 mM ammonium acetate, with or without charge reduction by 20% (v/v) TEAA; 0.7 to 3 uM per complex; single charge state isolated and fragmented by surface-induced dissociation; both purified
# Settings: remark: other sources report otherwise
binder,measurement,value
"C-reactive protein, P02741 19-224 (protein) QTDMSRKAFVFPKESDTSYVSLKAPLTKPLKAFTVCLHFYTELSSTRGYSIFSYATKRQDNEILIFWSKDIGYSFTVGGSEILFEVPEVTVAPVHICTSWESASGIVEFWVDGKPRVRKSLKKGYTVGAEASIILGQEQDSFGGNFEGSQSLVGDIGNVNMWDFVLSPDEINTIYLGGPFSPNVLNWRALKYEVQGEVFTKPQLWP",binding,binds

# Source: publication PMC13054468 (Analytical chemistry, 2025)
